AC50 and outcome data for seven compounds are collected here from PubChem BioAssay (EPA / NIEHS).

Chains of the proteins cited; added tags and fusions are not shown. Lines headed by an entry give the natural chain unless they say otherwise; changes in a name come on top.
UniProt P30536, whole entry, looked up: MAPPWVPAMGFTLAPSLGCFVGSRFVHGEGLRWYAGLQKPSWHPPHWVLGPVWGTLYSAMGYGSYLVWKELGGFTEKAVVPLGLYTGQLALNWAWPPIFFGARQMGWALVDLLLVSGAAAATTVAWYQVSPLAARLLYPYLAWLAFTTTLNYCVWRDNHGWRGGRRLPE
UniProt P49841: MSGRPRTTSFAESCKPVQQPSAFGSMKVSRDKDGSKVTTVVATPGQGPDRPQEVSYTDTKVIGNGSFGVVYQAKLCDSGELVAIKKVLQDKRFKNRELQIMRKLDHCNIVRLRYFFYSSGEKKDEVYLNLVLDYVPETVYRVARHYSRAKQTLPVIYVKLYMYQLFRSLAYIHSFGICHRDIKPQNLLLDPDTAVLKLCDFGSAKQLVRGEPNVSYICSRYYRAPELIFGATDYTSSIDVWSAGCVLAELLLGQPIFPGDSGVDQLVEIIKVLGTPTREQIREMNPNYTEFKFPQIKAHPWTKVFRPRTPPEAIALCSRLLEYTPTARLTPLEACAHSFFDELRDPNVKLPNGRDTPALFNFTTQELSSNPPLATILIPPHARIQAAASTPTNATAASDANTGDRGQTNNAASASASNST
UniProt P03372, whole entry, looked up: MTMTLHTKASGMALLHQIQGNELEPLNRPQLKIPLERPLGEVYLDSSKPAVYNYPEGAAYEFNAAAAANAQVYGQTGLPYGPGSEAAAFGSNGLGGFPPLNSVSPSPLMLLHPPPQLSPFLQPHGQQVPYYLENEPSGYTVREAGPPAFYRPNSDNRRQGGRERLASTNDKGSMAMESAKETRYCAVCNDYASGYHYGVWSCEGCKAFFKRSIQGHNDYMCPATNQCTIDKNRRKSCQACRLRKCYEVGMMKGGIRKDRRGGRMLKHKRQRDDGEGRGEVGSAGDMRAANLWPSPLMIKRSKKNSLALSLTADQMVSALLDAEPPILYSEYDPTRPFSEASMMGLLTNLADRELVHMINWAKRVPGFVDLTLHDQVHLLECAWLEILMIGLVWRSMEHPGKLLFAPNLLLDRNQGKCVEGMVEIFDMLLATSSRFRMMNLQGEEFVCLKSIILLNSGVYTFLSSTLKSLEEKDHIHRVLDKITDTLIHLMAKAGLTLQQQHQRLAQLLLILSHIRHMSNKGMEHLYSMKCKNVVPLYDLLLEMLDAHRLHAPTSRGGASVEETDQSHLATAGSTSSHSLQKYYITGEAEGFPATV
UniProt P16257, whole entry, looked up: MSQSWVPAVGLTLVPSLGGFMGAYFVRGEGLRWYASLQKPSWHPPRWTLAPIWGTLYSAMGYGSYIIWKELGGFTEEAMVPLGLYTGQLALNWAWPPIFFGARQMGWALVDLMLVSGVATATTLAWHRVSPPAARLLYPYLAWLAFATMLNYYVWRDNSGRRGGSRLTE
UniProt O97775: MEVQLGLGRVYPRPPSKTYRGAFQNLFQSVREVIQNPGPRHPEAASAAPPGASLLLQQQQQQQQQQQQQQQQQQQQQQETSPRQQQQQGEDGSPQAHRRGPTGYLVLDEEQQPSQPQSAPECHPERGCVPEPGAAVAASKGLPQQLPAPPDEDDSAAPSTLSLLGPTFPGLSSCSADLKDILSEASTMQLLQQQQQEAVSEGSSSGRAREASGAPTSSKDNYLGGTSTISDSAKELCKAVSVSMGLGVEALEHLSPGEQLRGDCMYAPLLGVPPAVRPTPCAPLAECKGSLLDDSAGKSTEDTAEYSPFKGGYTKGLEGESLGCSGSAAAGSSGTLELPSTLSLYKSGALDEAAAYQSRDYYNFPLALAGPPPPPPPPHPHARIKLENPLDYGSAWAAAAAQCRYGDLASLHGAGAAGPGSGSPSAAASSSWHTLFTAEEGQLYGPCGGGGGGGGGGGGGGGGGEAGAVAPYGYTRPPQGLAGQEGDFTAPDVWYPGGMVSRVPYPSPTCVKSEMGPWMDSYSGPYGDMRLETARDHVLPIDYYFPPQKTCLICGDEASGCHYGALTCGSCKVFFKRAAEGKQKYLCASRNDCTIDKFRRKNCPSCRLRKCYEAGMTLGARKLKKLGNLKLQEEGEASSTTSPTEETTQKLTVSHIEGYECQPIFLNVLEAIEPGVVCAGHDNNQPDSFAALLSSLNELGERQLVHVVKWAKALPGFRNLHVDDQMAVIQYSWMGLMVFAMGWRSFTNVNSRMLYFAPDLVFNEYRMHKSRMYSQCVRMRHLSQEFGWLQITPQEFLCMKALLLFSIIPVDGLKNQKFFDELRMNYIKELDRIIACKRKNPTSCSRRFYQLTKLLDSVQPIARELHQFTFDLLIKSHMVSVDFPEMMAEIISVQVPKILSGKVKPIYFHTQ
UniProt Q92731, whole entry, looked up: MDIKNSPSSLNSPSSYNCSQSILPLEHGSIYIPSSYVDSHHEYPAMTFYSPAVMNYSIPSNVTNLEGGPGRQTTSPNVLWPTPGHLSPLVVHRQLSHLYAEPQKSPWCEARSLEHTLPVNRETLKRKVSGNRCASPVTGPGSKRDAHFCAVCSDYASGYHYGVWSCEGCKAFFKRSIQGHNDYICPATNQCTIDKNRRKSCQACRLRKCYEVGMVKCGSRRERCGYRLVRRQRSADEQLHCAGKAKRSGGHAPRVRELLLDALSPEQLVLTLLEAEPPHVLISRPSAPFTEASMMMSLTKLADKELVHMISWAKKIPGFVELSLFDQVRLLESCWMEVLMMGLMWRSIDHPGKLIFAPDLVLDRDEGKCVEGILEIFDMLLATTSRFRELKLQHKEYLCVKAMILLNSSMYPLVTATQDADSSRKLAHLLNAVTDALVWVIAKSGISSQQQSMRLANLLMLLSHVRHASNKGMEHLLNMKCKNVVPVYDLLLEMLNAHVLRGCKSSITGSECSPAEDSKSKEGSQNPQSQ
UniProt P28827, whole entry, looked up: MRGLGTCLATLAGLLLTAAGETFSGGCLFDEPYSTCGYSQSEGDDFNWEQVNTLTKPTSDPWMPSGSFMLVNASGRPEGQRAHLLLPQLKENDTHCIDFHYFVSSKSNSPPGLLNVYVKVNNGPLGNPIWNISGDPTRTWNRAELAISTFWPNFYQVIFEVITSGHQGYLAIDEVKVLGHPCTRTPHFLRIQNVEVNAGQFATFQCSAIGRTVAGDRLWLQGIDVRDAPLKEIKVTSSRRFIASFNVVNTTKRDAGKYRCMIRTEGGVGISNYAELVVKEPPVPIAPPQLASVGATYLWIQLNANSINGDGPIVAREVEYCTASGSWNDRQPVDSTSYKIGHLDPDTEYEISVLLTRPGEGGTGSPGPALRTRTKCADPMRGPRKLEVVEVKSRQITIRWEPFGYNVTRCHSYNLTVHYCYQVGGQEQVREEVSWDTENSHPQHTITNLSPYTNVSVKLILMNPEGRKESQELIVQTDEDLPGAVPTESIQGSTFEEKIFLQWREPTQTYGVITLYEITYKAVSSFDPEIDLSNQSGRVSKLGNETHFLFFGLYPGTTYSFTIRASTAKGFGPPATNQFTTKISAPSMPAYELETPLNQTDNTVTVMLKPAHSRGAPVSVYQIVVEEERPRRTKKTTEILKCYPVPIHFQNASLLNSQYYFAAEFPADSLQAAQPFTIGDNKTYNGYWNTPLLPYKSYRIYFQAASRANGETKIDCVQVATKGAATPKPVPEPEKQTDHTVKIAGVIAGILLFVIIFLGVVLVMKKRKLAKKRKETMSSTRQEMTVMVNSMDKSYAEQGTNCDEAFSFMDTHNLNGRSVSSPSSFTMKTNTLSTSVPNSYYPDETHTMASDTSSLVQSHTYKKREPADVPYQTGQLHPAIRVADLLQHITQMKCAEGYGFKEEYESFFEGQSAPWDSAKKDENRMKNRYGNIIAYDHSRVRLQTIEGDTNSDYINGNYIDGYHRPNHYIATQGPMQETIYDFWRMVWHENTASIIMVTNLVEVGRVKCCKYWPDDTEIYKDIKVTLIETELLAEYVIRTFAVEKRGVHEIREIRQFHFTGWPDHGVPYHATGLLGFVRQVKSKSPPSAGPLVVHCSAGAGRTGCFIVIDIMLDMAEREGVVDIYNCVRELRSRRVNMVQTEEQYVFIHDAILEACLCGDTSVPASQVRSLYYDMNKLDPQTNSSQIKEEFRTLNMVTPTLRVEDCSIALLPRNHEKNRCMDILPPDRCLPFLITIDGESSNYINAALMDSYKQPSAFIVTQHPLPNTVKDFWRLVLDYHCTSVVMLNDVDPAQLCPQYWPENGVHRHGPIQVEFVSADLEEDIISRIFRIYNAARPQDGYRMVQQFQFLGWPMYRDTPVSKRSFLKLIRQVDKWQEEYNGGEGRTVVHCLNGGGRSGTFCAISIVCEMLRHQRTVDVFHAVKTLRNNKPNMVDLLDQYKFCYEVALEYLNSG

Assay [1] addresses human Peripheral-type Benzodiazepine Receptor (PBR), TSPO (gene 706) (UniProt P30536). Kind of assay: NVS_MP_hPBR: NovaScreen (NVS) Membrane Protein Assay for human Peripheral-type Benzodiazepine Receptor (PBR) (AID 2283331).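 Note: hits reduce radioligand binding relative to DMSO baseline.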 The essentials:
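Using human colon-derived membranes, this one-endpoint binding test reads radioligand loss by scintillation after 1 h. Screening started at 25 uM in duplicate, with positive and negative controls on every plate, and actives moved to dose series.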

A short description of assay [2]: BSK_SAg_SRB: Viability Assessment in the BioMAP Diversity Plus: SAg Assay (AID 2283096; active = hit-call score of the fitted dose curve at least 0.9, where 1 is the maximum; inactive = score below 0.9;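 note: cells read one day after compound addition; hits may be either gain or loss of signal compared with DMSO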). Conditions: primary human HUVEC with PBMC. The procedure, abridged:
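This overt-cytotoxicity endpoint quantifies protein in human endothelial/PBMC co-cultures at 24 h using SRB absorbance (560 nm) after trichloroacetic acid fixation. Values reflect signal change from the DMSO negative control, fitted bidirectionally.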

In assay [3] the target is Glycogen synthase kinase-3 beta (Homo sapiens) (UniProt P49841). Briefly: NVS_ENZ_hGSK3b: NovaScreen (NVS) Enzymatic Assay for human Glycogen Synthase Kinase-3 beta (GSK3b) (AID 2283165). The procedure, abridged: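 Recombinant enzyme with specific fluorescent substrate, 1 h, product separated by electrophoretic mobility shift. Primary duplicate screen at 25 uM; actives (e.g. 30% inhibition) followed in singleton concentration-response to 50 uM. Signal loss fitted versus DMSO.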

Assay [4] concerns the target Estrogen receptor (Homo sapiens) (UniProt P03372). Briefly: NVS_NR_hER: NovaScreen (NVS) Nuclear Receptor Binding Assay for human Estrogen Receptor (ER) (AID 2283348). The procedure, abridged:
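Radiodetection of ligand displacement in a lysate-based, cell-free format using MCF7 extracts, read at 18 hours. Duplicate 25 uM primary testing, then concentration series for actives.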

Assay [5] deals with rat Peripheral-type Benzodiazepine Receptor (PBR), Tspo (gene 24230) (UniProt P16257). Kind of assay: NVS_MP_rPBR: NovaScreen (NVS) Membrane Protein Assay for rat Peripheral-type Benzodiazepine Receptor (PBR) (AID 2283335). The essentials:
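Competitive displacement of specific radioligand from rat kidney membrane PBR, read by filtration and scintillation after 1 h. Compounds first tested at 25 uM in duplicate, then in concentration series; signal loss relative to DMSO.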

Assay [6] deals with chimpanzee Androgen Receptor (AR), AR (gene 747460) (UniProt O97775). Briefly: NVS_NR_cAR: NovaScreen (NVS) Nuclear Receptor Binding Assay for chimpanzee Androgen Receptor (AR) (AID 2283346). The essentials: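 Cell-free radioligand displacement using receptor protein extracted from Sf9/Sf21 cells; bound radioligand measured by scintillation counting 72 hours after chemical dosing. Loss of signal versus DMSO baseline indicates binding; primary screen single-concentration in duplicate at 25 uM, actives followed in concentration series.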

Assay [7] has as its target Estrogen receptor (Homo sapiens) (UniProt P03372). Kind of assay: OT_ER_ERaERa_1440: Odyssey Thera (OT) 24-hour HEK293T Protein-Complementation Assay for Estrogen Receptor-alpha/-alpha Homodimer (AID 2283349).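 Note: hits raise fluorescence above DMSO for agonists and antagonists alike.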 The procedure, abridged:
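Stably transfected HEK293T; ERα LBD homodimer PCA. 24 h dosing, fluorescence intensity read, gain-of-signal vs DMSO.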

For assay [8] the target is unchanged. Kind of assay: OT_ERa_GFPERaERE_0120: Odyssey Thera (OT) 2-hour HeLa Transcription Induction Assay for Estrogen Receptor (AID 2283382). The procedure, abridged: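 Fluorescence-microscopy images of the GFP-ERα/ERE reporter, scored by high-content image algorithms, give the readout. HeLa exposure lasted 2 h, and only signal increase over DMSO was fitted.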
Assay [9] is described as follows: ACEA_AR_agonist_AUC_viability: ACEA Biosciences xCELLigence Real-Time Cell Analysis on Androgen Receptor Agonism for Viability (AID 2283775). The essentials: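 22Rv1 cells; impedance growth kinetics; 8-pt 1:4 dilutions from 100 uM top final, ≤0.5% DMSO; n = 2; 80 h read; AUC viability, loss-of-signal vs DMSO.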
Assay [10] addresses Estrogen receptor beta (Homo sapiens) (UniProt Q92731). Briefly: OT_ER_ERbERb_0480: Odyssey Thera (OT) 8-hour HEK293T Protein-Complementation Assay for Estrogen Receptor-beta/-beta Homodimer (AID 2283357).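 Note: active means signal gain over DMSO baseline.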 The essentials:
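Fluorescence gain from complemented reporter fragments on ER-beta LBD homodimer in HEK293T was quantified against DMSO controls after 8 h treatment, fixation in 4% formaldehyde and Draq5 staining.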

Assay [11] deals with human Protein Tyrosine Phosphatase Receptor Type M (PTPRM), PTPRM (gene 5797) (UniProt P28827). Kind of assay: NVS_ENZ_hPTPRM: NovaScreen (NVS) Enzymatic Assay for human Protein Tyrosine Phosphatase Receptor Type M (PTPRM) (AID 2283215).
Assay [12] in a line: CCTE_Shafer_MEA_dev_inter_network_spike_interval_mean: CCTE's Neural Network Formation Assay for Mean Inter-network Spike Interval, Shafer Lab (AID 2284047; active = hit-call score of the fitted dose curve at least 0.9, where 1 is the maximum; inactive = score below 0.9). The procedure, abridged:
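Primary rat cortical neurons on PEI-coated 48-well MEAs (16 electrodes/well) were exposed from plating day 0 to DIV 12, with dosing renewed at DIV 5 and 9. Recordings at DIV 5, 7, 9, 12 were collapsed by trapezoidal AUC, loss-of-signal fit vs DMSO.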

The nature of assay [13]: IUF_NPC2-5_cytotoxicity_72hr: Cytotoxicity Assessment at 72 hours in the Leibniz Research Institute for Environmental Medicine (IUF) Neural Progenitor Cell Migration and Differentiation Assay for Cytotoxicity (NPC2-5) (AID 2284306).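 Note: LDH release into supernatant measured by resorufin fluorescence marking membrane damage.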 The essentials:
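Primary human neural progenitor spheres migrate and differentiate on laminin. Compound is present from the start of differentiation, with DMSO kept at or below 0.1%. At 72 h, supernatant LDH is quantified fluorometrically, with values fitted in the positive direction.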

For some assays here: This list holds what a sample rich in hits left over. Inconclusive results are not listed. The list shows a part of the results, in another mix than the full data. Calls of active or inactive are those of the source. Rule for the calls, unless noted: active = hit-call score of the fitted dose curve at least 0.9, where 1 is the maximum; inconclusive = response in the unintended direction; inactive = score below 0.9.

`CN(c1nccc(=O)[nH]1)C1CCN(c2nc3ccccc3n2Cc2ccc(F)cc2)CC1`: the AC50 (commonly the concentration giving half of the maximal activity seen) in assay [1] is active: 15.8 µM.
Regarding `OC[C@@H](O)[C@@H](O)[C@H](O)[C@H](O)CO`, in assay [2], the result was inactive.
On to `CCCCCCCCCCCCCO`, for which the result in assay [3] and in assay [4] was inactive.
For `CCCCCCCC[N+](C)(CCCCCCCC)CCCCCCCC`, the AC50 in [5] is active: 33.3 µM; in assay [6], active: 11.2 µM.
In the case of `O=S(=O)(O)c1ccccc1C=Cc1ccc(-c2ccc(C=Cc3ccccc3S(=O)(=O)O)cc2)cc1`, the compound was called inactive in assay [7], in [8] and in assay [9].
For `O=C(OCCOCCOCCOC(=O)c1ccccc1)c1ccccc1`, the call in assay [10] and in [9] was inactive.
Turning to `CCCC(CCC)C(=O)O`, the compound was classed as inactive in [11] and in [12]. Also, the AC50 in assay [13] is active: 1.15 mM.
